Laboratory results from patent US5550214 (dated 1996).
Some peptides are written in HELM: one residue between dots, names in brackets for other building blocks, links after the first $.

Assay: general procedure: Fmoc solid-phase peptide synthesis
Details: whole synthesis, by weight

## PEPTIDE1{I.I.S.A.V.V.G.I.L}$$$$V2.0
  final purity (method not given): about 40% pure by weight
